From paper PMC7426320
No constants are given. Whether binding was seen depends on the method and setting. In cells and extracts the contact can be indirect. Some results given as binding are weak or reduced against the parent protein; the word gives no strength.

Sequences of proteins named here, by UniProt entry; tags and fusion partners are left off.
UniProt Q92793: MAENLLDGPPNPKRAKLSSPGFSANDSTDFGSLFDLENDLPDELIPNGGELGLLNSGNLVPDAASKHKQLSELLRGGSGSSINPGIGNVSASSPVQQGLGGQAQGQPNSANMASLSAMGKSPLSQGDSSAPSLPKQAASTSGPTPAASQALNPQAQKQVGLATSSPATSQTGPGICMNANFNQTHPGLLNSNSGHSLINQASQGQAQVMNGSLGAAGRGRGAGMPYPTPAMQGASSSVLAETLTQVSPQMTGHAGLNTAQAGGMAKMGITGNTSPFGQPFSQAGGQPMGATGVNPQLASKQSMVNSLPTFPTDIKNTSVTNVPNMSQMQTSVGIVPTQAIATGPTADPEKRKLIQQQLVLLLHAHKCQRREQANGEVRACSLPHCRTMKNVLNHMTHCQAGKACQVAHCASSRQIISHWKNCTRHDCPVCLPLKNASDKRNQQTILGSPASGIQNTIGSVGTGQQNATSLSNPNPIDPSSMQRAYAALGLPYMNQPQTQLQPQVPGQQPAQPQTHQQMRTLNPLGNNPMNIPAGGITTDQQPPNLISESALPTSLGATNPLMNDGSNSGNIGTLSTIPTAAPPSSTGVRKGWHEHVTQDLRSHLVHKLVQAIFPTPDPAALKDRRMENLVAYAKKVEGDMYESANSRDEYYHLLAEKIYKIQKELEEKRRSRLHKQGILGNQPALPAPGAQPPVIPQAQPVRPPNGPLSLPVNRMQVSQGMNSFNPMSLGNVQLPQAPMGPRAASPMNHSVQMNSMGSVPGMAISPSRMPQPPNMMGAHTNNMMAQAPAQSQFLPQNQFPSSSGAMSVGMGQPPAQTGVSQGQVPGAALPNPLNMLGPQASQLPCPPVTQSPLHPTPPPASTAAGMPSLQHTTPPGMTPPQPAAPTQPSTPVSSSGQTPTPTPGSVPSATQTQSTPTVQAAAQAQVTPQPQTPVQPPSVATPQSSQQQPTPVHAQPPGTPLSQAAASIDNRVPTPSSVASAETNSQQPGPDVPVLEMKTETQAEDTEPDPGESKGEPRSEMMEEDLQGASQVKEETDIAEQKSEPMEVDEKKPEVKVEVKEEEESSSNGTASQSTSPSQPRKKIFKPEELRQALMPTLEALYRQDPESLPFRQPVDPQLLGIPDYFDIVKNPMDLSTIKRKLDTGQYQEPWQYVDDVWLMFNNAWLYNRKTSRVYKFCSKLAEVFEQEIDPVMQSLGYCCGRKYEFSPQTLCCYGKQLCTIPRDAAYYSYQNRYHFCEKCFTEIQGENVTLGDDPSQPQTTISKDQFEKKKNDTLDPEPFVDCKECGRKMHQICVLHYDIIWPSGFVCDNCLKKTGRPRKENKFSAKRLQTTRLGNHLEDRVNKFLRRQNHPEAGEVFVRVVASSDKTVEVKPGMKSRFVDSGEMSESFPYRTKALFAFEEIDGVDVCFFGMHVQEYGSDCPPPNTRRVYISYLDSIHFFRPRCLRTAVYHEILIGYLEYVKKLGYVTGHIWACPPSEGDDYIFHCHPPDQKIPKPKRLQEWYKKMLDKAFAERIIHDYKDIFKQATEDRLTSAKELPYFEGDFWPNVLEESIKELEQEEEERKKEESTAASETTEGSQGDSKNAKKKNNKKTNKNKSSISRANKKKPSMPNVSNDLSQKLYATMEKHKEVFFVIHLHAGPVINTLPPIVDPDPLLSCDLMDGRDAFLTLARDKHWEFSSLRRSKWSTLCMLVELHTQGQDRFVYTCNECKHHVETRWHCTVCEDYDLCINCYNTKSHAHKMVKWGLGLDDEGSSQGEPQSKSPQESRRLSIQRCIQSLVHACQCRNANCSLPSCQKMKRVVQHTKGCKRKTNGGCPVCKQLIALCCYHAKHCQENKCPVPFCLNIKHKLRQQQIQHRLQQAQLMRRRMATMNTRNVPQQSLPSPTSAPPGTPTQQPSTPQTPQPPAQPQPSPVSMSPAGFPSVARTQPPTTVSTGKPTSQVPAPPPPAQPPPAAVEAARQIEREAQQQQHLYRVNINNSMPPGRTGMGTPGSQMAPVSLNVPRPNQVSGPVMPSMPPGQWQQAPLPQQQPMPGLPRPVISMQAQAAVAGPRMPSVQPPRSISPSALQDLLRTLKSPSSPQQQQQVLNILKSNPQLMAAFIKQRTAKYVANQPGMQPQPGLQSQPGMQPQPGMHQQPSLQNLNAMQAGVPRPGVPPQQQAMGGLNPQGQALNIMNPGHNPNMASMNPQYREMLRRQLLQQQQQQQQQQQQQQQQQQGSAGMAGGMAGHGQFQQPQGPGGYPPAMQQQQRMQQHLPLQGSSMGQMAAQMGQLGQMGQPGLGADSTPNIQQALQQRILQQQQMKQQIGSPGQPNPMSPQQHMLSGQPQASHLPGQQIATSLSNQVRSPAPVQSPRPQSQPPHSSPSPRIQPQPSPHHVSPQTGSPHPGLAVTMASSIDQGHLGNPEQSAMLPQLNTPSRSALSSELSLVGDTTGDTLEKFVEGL
UniProt P40763: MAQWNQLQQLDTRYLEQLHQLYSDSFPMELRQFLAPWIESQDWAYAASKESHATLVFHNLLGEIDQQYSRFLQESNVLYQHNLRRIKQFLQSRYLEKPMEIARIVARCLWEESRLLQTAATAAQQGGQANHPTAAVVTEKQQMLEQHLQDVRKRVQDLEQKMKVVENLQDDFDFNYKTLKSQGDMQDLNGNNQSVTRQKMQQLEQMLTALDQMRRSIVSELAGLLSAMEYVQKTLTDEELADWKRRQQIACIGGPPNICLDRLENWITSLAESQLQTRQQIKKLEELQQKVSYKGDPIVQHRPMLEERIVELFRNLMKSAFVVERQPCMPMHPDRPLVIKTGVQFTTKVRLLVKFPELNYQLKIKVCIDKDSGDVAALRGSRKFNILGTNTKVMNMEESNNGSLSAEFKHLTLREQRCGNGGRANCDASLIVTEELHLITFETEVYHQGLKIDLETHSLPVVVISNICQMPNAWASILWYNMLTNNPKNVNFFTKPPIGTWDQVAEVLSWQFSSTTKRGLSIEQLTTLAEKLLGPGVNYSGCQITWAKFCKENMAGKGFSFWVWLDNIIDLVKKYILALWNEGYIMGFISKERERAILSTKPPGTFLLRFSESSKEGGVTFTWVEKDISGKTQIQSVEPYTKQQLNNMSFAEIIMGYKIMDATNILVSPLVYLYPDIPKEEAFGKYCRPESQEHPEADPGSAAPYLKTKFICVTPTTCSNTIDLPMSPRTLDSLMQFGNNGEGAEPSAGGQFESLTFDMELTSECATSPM

Target: T1, serine/arginine-rich splicing factor 2 (SRSF2) (human (endogenous in Jurkate E6)) (UniProt Q01130)
T1 sequence: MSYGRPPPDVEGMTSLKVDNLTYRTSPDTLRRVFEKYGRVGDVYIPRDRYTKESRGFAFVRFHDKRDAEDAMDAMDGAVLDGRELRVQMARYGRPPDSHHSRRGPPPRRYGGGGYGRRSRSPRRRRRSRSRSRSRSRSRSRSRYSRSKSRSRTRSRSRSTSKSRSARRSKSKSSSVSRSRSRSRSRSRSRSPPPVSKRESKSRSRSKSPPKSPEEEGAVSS
Experiment: co-IP; Jurkate E6 cell lysates immuno-precipitated with anti-SRSF2 antibody or IgG (Protein G Dynabeads kit), western blot of the partners

Substance	binding
CBP (from UniProt Q92793 1-2442)	binds
STAT3 Y705p (signal transducer and activator of transcription 3, phosphorylated at Y705) (from UniProt P40763 1-770)	binds
